# Reference: patent US11933781B2, “Fibrosis model and methods of use thereof” (The Regents of the University of Colorado, priority 2020, dated 2024)
# At least one compound was matched to its structure with a doubt left. Some of these results come from one statement about several compounds together.
# Columns and labels:
# Format in all cases: cell-based, human
# [1] = tested on: COPD HBECs; test: Induction of jamming in COPD HBECs
# Description: Epithelial Cell Culture: Primary human bronchial epithelial cells (HBECs) were obtained from two sources (1) provided by Dr. Hong Wei Chu at National Jewish Health, or (2) lung transplant collection at the University of Colorado Hospital (IRB protocol: 11-1664 or 18-0572). Epithelial cells from bronchial brushes or CT-guided dissection were expanded to passage 2 before being cultured at air liquid interface (ALI). Control (N=11), IPF (N=6), and COPD (N=3) were age matched and controls had no history of chronic lung disease (Table 1). Cells were seeded on 24-Transwell plates (Corning, Corning, New York, 3470) coated with type I collagen (Corning, Corning, New York, 354236) and maintained under submerged conditions for five to seven days until the cells reached confluence. Culture media was a 1:1 mixture of DMEM and BEBM (Lonza, Basel, Switzerland, CC170) supplemented with retinoic acid (Sigma-Aldrich, Germany, R-2625) nystatin (Sigma-Aldrich, Germany N1638), and bovine serum albumin (FisherSci, Thermo Fisher Scientific, Waltham, Massachusetts BP9703100). Once confluent, apical media was removed and maintained at ALI. HBECs began recapitulating the in vivo airway, with production of mucus (6-9 days after establishing ALI) and development of a pseudostratified epithelium. […]
# [2] = tested on: IPF HBECs; test: Induction of the unjammed-to-jammed transition (UJT) in IPF HBECs; settings: day 14 IPF HBECs
# Description: (§1) Epithelial Cell Culture: Primary human bronchial epithelial cells (HBECs) were obtained from two sources (1) provided by Dr. Hong Wei Chu at National Jewish Health, or (2) lung transplant collection at the University of Colorado Hospital (IRB protocol: 11-1664 or 18-0572). Epithelial cells from bronchial brushes or CT-guided dissection were expanded to passage 2 before being cultured at air liquid interface (ALI). Control (N=11), IPF (N=6), and COPD (N=3) were age matched and controls had no history of chronic lung disease (Table 1). Cells were seeded on 24-Transwell plates (Corning, Corning, New York, 3470) coated with type I collagen (Corning, Corning, New York, 354236) and maintained under submerged conditions for five to seven days until the cells reached confluence. […]
# (§2) Cell Shape Analysis: Cell shape measurements were achieved via cell border delineation by F-actin immunofluorescence. […] Similar to previously published workflows, we segmented images which were subsequently analyzed in ImageJ for the shape index (q=Perimeter√Area) and aspect ratio (major and minor axis) for all cells within a given field of view. […]
# [3] = tested on: IPF HBECs; test: YAP immunofluorescence in IPF HBECs; settings: IPF HBECs 48 hours after treatment
# Experimental: Immunofluorescence staining: Cells were fixed with 4% paraformaldehyde in PBS with calcium and magnesium for 30 minutes at room temperature. Cells were then washed with PBS and subsequently permeabilized (Triton™-X, at 0.1%) and blocked with 5% bovine serum albumin in PBS for 1 hour at room temperature. Cells were then incubated for >16 hours at 4 degrees with primary antibodies. Primary antibodies were aspirated, and cells were washed with PBS+0.1% Tween-20 at room temperature. Cells were then incubated for 1 hour at room temperature with secondary antibodies (1:500) and/or Phalloidin-iFluor™ 488 1:2000. Cells were stained with 4′,6-diamidino-2-phenylindole at 1:20000 (BioLegend®, San Diego, California, 422801). […]
# Immunofluorescence and cell number quantification for HBEC experiments: For total fluorescence quantification (i.e., ERBB2), all images were processed in the same manner with the same microscopy settings. To determine mean fluorescence the channel of interest was separated in ImageJ, and the mean gray value was measured for the field of view and normalized by the total number of cells. […] The number of cells also expressing the marker of interested were then counted and normalized by the total number of cells per field. For each experiment a biological n≥3 was used with at least 5 fields of view per well and at least 2 wells being counted in total per donor.
# [4] = tested on: proximal, jammed cultures; test: IL-6 family cytokine induced unjamming of proximal airway epithelial cultures; settings: proximal cultures pre-treated, then stimulated with IL-6 family cytokines
# Experimental: Live Cell Imaging and Dynamics Measurement: To assess cellular dynamics, time-lapse microscopy and subsequent analysis were completed. Two imaging schemes were utilized: (1) images were taken every 5 minutes for 200 minutes during HBEC differentiation; (2) images were taken every 20 minutes for 48, 96, or 144 hours after HBEC experimental intervention. Phase contrast images were acquired on a Keyence BZ-X810 with a stage incubator (37° C., 5% CO2). Dynamic analysis followed previously published workflows (10-12, 22). Briefly, using phase contrast images instantaneous velocities were mapped by particle image velocimetry utilizing open source PIVLab on MATLAB. Velocity fields were obtained with 2 passes (64×64 and 32×32 pixel size interrogation window with 50% overlap) with a pixel size of 0.75488 μm using a Fast Fourier Transformation method. Trajectories from the PIV were seeded onto a grid and obtained via forward-integration of subsequent fields. […]
# as §2
# [5] = tested on: control HBECs; test: Induced unjamming of control HBECs at air-liquid interface (live cell imaging, cell shape); settings: control HBECs at ALI day 14, single agent
# Description: as §1, §2
Compound,induction of the UJT (jamming) in IPF epithelia [2],effect of inhibitor pre-treatment on IL-6 family cytokine induced unjamming [4],induced unjamming persisted for [5] [h],further results
O=c1cc(N2CCOCC2)oc2c(-c3ccccc3)cccc12 [LY294002],induces jamming in IPF epithelia,,,induction of jamming in COPD epithelia [1]: not responsive to ERBB-YAP inhibition; YAP nuclear exclusion [3]: results in YAP nuclear exclusion
N#CC[C@H](C1CCCC1)n1cc(-c2ncnc3[nH]ccc23)cn1 [Ruxolitinib],did not induce the UJT,JAK/STAT signaling was dispensable for IL-6 family cytokine induced unjamming in proximal cultures,,
CN1CCN(CCOc2cc(OC3CCOCC3)c3c(Nc4c(Cl)ccc5c4OCO5)ncnc3c2)CC1 [Saracatinib],,SRC and YAP were essential for the acquisition of this fluid-like phenotype,,
CN1C(=O)c2sccc2N(C)c2nc(Nc3ccc(S(N)(=O)=O)cc3)ncc21 [XMU-MP-1],,,> 48,
"AREG: Recombinant amphiregulin, low affinity EGFR ligand (R&D Systems 262-AR)",,,> 48,
